Test results from paper PMC10516927, “DNA-bridging by an archaeal histone variant via a unique tetramerisation interface” (Communications Biology, 2023).
A weaker result is weaker than the reference pair of the same experiment. Protein sequences can lack the tags named with them.

Target: T1, MJ1647 (Methanocaldococcus jannaschii) (UniProt Q59041)
T1 sequence (looked up): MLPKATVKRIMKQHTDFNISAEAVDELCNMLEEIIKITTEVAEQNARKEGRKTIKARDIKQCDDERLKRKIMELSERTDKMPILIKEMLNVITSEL
Experiment: EMSA
Settings: smear, unstable complex; EMSA: 50 nM DNA, 10 mM Tris/HCl pH 8.0, 222 mM NaCl, 0.4 mM TCEP, 0.1 mg/ml BSA, 5% glycerol, 37 C 15 min; recombinant protein; residues 1-96; protein details: untagged; label: Cy3 (Methods)

Question: Does “CATACTGGTTCCAAAGCATGAAATAGTTCCAA (double strand) [30 bp EMSA template]” bind?
Answer: Result: binds more weakly
